Data taken from paper PMC8636562, “Mounting, structure and autocleavage of a type VI secretion-associated Rhs polymorphic toxin” (Nature Communications, 2021).
No constants are given. Whether binding was seen depends on the method and setting. Binding seen in cells or lysates may run through a third protein. Some results given as binding are weak or reduced against the parent protein; the word gives no strength. For some assays here: Sequences can lack the tags named with a protein.

Protein sequences, listed by entry. Tags and fused reporters are not part of them. Residues count along the entry.
UniProt Q7N9I0, residues 1-289: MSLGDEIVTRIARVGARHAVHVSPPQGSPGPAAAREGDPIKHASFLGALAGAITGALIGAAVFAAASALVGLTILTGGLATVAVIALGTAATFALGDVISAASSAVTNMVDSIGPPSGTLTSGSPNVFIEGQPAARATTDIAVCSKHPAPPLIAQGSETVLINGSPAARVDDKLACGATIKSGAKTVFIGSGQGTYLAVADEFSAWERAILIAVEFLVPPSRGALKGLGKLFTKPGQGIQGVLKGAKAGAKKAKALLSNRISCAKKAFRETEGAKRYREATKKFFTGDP
Rhs1^Shell, ~120-kDa central autocleavage fragment of Rhs1 (Q7N9I0, residues 290-1342): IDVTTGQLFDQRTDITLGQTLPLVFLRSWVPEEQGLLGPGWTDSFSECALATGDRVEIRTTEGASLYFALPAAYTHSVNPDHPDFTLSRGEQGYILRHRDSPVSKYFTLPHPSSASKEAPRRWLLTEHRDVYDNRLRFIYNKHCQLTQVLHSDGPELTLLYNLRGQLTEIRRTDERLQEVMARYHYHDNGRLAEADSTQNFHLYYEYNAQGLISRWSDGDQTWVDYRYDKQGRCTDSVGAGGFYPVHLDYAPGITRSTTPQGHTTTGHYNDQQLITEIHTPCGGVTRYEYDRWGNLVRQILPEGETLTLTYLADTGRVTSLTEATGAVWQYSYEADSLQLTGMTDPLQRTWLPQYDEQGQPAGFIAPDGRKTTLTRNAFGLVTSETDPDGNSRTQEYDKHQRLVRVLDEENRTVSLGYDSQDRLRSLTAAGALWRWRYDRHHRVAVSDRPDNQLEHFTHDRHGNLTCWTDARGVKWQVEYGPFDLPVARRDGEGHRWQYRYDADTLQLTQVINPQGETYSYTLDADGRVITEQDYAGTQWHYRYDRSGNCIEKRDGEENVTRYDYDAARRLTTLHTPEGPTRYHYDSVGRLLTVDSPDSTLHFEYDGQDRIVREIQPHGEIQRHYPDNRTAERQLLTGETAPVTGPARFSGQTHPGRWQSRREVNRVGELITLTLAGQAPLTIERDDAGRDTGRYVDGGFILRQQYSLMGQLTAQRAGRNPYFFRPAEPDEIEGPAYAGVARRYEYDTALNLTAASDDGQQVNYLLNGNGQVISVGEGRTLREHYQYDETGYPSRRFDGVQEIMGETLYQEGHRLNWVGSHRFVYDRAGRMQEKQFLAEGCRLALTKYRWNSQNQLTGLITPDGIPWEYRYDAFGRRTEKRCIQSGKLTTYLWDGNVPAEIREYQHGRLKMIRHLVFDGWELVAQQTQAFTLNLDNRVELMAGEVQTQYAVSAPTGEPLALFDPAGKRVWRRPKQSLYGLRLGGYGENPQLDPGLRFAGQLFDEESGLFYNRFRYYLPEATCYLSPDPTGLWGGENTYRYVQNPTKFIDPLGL

Key:
[1] = target: T1, Photorhabdus laumondii EagR chaperone (Plu0354), C-terminally Strep-tagged (Photorhabdus laumondii (P. luminescens subsp. laumondii TTO1)) (UniProt Q7N9H9); experiment: pull-down; two proteins co-produced in E. coli BL21(DE3) (Strep-tagged EagR with FLAG-tagged Rhs1 or with His6-tagged VgrG); cleared cell extract on Strep-Tactin resin, 1 h at 4 °C, buffer A (50 mM Tris-HCl pH 8.5, 250 mM NaCl, 1 mM TCEP), eluted with 2.5 mM desthiobiotin; Coomassie and immunoblot
T1 sequence: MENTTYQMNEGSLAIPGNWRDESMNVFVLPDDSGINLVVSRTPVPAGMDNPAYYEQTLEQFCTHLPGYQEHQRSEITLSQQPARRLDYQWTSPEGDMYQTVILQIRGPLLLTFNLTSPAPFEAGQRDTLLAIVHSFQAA

[2] = target: Rhs1^NT, 29-kDa N-terminal autocleavage fragment of Rhs1 (Photorhabdus laumondii (P. luminescens subsp. laumondii TTO1)) (UniProt Q7N9I0); experiment: as above

Substance: Rhs1^NT, 29-kDa N-terminal autocleavage fragment of Rhs1 (from UniProt Q7N9I0 1-289) (domain or fragment)
- binding [1]: binds

Substance: Rhs1^Shell, ~120-kDa central autocleavage fragment of Rhs1 (from UniProt Q7N9I0 290-1342) (domain or fragment)
- binding [2]: binds
